# From PubChem BioAssay AID2417 (National Center for Advancing Translational Sciences (NCATS), 2010)
# Hit rate of the full screen: of about 140,000 compounds, about 4,300 (3.1%) were called active. Inconclusive results, whose numbers are uncertain, are shown with a selection of clear calls.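 How the source made its calls: active means readout at or below -70, meaning at least 70% loss of cells showing the perinucleolar compartment, a nuclear body marking cancer cells; inconclusive means readout between -30 and a set limit; inactive means the rest.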
# Assay: High Content Assay for Compounds that inhibit the Assembly of the Perinucleolar Compartment;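 further: plate controls were DMSO wells for no effect and camptothecin positive control wells for full effect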
# Details: PC3M PTB-GFP, PNC prevalence imaging, 16 h; at 10 µM; stronger effect = lower value
# How it was run: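 Read-out is percentage of cells bearing a perinucleolar compartment, from automated 20x imaging of fixed, Hoechst-stained PC3M PTB-GFP cells. Cells were seeded 4 h, then exposed 16 h to compound (23 nl of library stock) in duplicate plates.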
row,Structure (SMILES),"activity change (PNC), negative = inhibition"
1,COc1ccc(Nc2cc(C(=O)NCCCN3CCN(C)CC3)c3ccccc3n2)cc1,inactive: -26.5%
2,N#CCCSc1ccccc1NC(=O)c1ccc(S(=O)(=O)N2CCCC2)cc1,inconclusive: -42.3%
3,CN(Cc1cn(C)c2ccccc12)C(=S)Nc1cc(F)cc(F)c1,inactive: 16.1%
4,CS(=O)(=O)N1CCN(c2ccc(NC(=O)c3cccnc3Cl)cc2)CC1,inactive: -19.1%
5,CCOn1c(-n2nc(C)cc2C)nc2ccccc2c1=O,inconclusive: -57.8%
6,Clc1ccc(OCc2nnc(SCc3nnc(-c4ccccc4)o3)o2)c(Cl)c1,inconclusive: -48.8%
7,CCOc1ccc(N2C(=O)CC(N(O)c3ccccc3)C2=O)cc1 (stereo not given),inconclusive: -39.4%
8,Cc1cc(Cl)ccc1Oc1ccc(C(N)=O)cc1[N+](=O)[O-],inconclusive: -31.7%
9,Cc1cc(NC(=O)c2ccc(C)s2)n(-c2nc3ccccc3[nH]2)n1,inconclusive: -34.7%
10,Cc1ccc(S(=O)(=O)NNC(=O)CCC(=O)Nc2ccccc2)cc1,inactive: 2.59%
11,Cc1cccc(NC(=S)NNC(=O)c2ccccc2OC(F)F)c1,inactive: 9.93%
12,COc1ccc(C(NC(=O)c2cccnc2)c2cc(Cl)c3cccnc3c2O)cc1OC (stereo not given),inactive: 9.38%
13,CCC1CCCCN1c1nc(-c2ccncc2)nc2ccccc12 (stereo not given),inconclusive: -44.5%
14,O=C1CC(c2cccc(Cl)c2)C(n2cncn2)C(=O)C1C1NCCc2ccccc21 (stereo not given),inconclusive: -34.3%
15,CC(C)N(C(=O)CSc1nnc(NC(=O)c2cccs2)s1)C(C)C,inactive: -11.6%
16,Cc1cccc(OCCSc2nnc(-c3ccoc3C)n2C)c1,inconclusive: -35.7%
17,COc1ccc(C=NCCCN2CCOCC2)cc1,inactive: 2.13%
18,Cc1cc(C)cc(OCC(=O)NNC(=O)CCN2C(=O)c3ccccc3C2=O)c1,inactive: 31.4%
19,CCOC(=O)C1CC=C(Cl)CC1C(=O)Nc1nccs1 (stereo not given),inconclusive: -41.1%
20,Cc1sc2ncn(CCn3cnc4sc(C)c(C)c4c3=O)c(=O)c2c1C,inactive: -20.3%
21,CCN(CC)S(=O)(=O)c1ccc(F)cc1,inactive: 283%
22,Cc1cccc(C(=O)N/N=C/c2cc(Br)c(Br)o2)c1,inactive: 2.76%
23,CCOC(=O)Cc1ccc(NC(=O)c2ccc(C(C)(C)C)cc2)cc1,inconclusive: -35.2%

# 2 compounds drawn at random from those above:
row,Structure (SMILES),"activity change (PNC), negative = inhibition"
12,COc1ccc(C(NC(=O)c2cccnc2)c2cc(Cl)c3cccnc3c2O)cc1OC (stereo not given),inactive: 9.38%
1,COc1ccc(Nc2cc(C(=O)NCCCN3CCN(C)CC3)c3ccccc3n2)cc1,inactive: -26.5%

# Next results follow:

row,Structure (SMILES),"activity change (PNC), negative = inhibition"
1,O=c1c(Cc2ccc(Cl)cc2)c(O)ccn1Cc1cccc(Cl)c1,inconclusive: -61%
2,O=C(NCCN1CCCCCC1)c1ccc(N2CCCC2=O)cc1,inconclusive: -35.6%
3,Cn1c(=O)c2cc(S(=O)(=O)NC(C(=O)N3CCCCCC3)c3ccccc3)ccc2n(C)c1=O (stereo not given),inconclusive: -62.8%
4,CC1CCCN(CCCOc2ccc(Cl)cc2Br)C1 (stereo not given),inconclusive: -53.5%
5,O=C(NCc1ccc(OC(F)(F)F)cc1)C12CN(Cc3ccccc3)CC1C(c1cccc([N+](=O)[O-])c1)=NO2 (stereo not given),inconclusive: -50.6%
6,CCC(=O)c1ccc(N2CCN(C(=O)c3ccc(Br)cc3)CC2)c(F)c1,inconclusive: -62.4%
7,CCOC(=O)c1c(Cc2cccc(Cl)c2)c[nH]c1C,inactive: -8.78%
8,COc1ccccc1C1C2=C(CC(C)(C)CC2=O)Nc2nnnn21 (stereo not given),inconclusive: -34.9%
9,CCCCOC(=O)Sc1nc2ccccc2o1,inactive: 8.28%
10,CCCCc1ccc(NC(=S)NCc2cccs2)cc1,inactive: 53.9%
11,O=C(NCCN1C(=O)C2C3C=CC(C3)C2C1=O)N1CCOCC1 (stereo not given),inconclusive: -31.7%
12,CCS(=O)(=O)N1CCCC(C(=O)NC2CCCCC2C)C1 (stereo not given),inactive: 63.1%
13,COc1ccccc1Nc1nc2c(s1)CCC2,inactive: 78.1%
14,Cc1sc(NC(=S)NC(=O)C(C)(C)C)c(C(N)=O)c1C,inactive: 13.6%
15,COc1ccc(N2C(=O)CC(Nc3ccc(C)cc3)C2=O)cc1 (stereo not given),inactive: 12.9%
16,O=C(NCc1ccco1)c1cccc2c1C(=O)N(C1CCCCC1)C2,active: -100%
17,O=C(NC1CCCCCC1)c1ccc2c(=O)n3c(nc2c1)CCCCC3,inconclusive: -30.5%
18,O=C(Nc1ccc2c(c1)OCO2)Nc1ccc(Br)cn1,inconclusive: -38.6%
19,NC(=O)C1(N2CCCCC2)CCN(c2nc(-c3ccc(Br)cc3)cs2)CC1,inconclusive: -41.7%
20,O=C(c1ccc(Cl)s1)N1CCN(c2ccccc2)CC1,inconclusive: -37.2%
21,CN(C)c1ccc(C(=S)N2CCNCC2)cc1,inconclusive: -74.6%
22,Cc1ccc(NC(=O)CCC(=O)N/N=C/c2cc([N+](=O)[O-])ccc2O)cc1,inconclusive: -36.1%
23,CCc1ccc(C2CC(=O)N3CN(c4ccccc4)CSC3=C2C#N)cc1 (stereo not given),inactive: 31.8%

row,Structure (SMILES),"activity change (PNC), negative = inhibition"
1,Cn1nnc(-c2ccc(OCc3ccccc3F)cc2)n1,inconclusive: -39.6%
2,COc1ccc(CCNc2oc(COc3ccccc3F)nc2C#N)cc1,inconclusive: -55.1%
3,Cc1cc(C(=O)Nc2sc3c(c2C#N)CCC(C)C3)no1 (stereo not given),inactive: -2.73%
4,O=c1nc2s/c(=C\c3ccc(-c4ccccc4[N+](=O)[O-])o3)c(=O)n2nc1-c1ccccc1,inconclusive: -66.7%
5,COc1cccc(C2CC(C(F)(F)F)n3ncc(C(=O)NCC4CCCO4)c3N2)c1 (stereo not given),inactive: 6.55%
6,CCN(CC)S(=O)(=O)c1ccc(C(=O)NNC(=O)C2CCN(S(=O)(=O)c3ccc(Cl)cc3)CC2)cc1,inactive: -27%
7,O=c1[nH]cnc2c1c(-c1ccccc1)cn2-c1ccc(F)cc1,active: -108%
8,COc1ccc(NC(=O)Cc2coc3ccc4ccccc4c23)cc1S(=O)(=O)N1CCOCC1,inactive: 59.6%
9,CCCCN(C)CCn1c(=S)[nH]c2ccc(N3CCOCC3)cc2c1=O,inconclusive: -53.7%
10,O=C(Cc1ccccc1)NC(=S)Nc1ccc(N2CCCCC2)cc1,inactive: -26.1%
11,O=C(Oc1coc(CSc2nnc(NC(=O)c3cccs3)s2)cc1=O)c1ccccc1,inconclusive: -48.7%
12,COC(=O)C1=C(CSc2nc3ccccc3s2)NC(=O)NC1c1ccc(F)cc1 (stereo not given),inconclusive: -31.5%
13,O=C1C(Cl)=C(NCC2CCCO2)C(=O)N1c1cccc(Cl)c1Cl (stereo not given),inconclusive: -61.9%
14,Cc1cc(SCC(=O)NC(=O)NCc2ccco2)nc2c(C)cccc12,inconclusive: -59.9%
15,Cc1cc2cc(CN(C(=O)C3CC3)C3CCCC3)c3nnnn3c2cc1C,inconclusive: -30.4%
16,Cc1cc(C)nc(N/N=C/c2ccccc2OCc2ccc([N+](=O)[O-])cc2)n1,inconclusive: -59.6%
17,Cc1ccc(C(=O)CSc2nc(C)cc(C)c2C(N)=O)cc1,active: -87.8%
18,c1ccc(-c2ccc(OCCOCCn3cncn3)cc2)cc1,inconclusive: -49.5%
19,Oc1c(Br)cc(Br)cc1C=Nc1ccc2c(c1)OCO2,inconclusive: -65%
20,COc1ccc(C2CC(c3ccccc3)=NN2C(=O)c2ccc(Cl)c([N+](=O)[O-])c2)cc1 (stereo not given),inactive: 27.8%
21,N#CC1=C(N)NC(SCc2ccc(F)cc2)=C(C#N)C12CCCCC2,inactive: -1.77%
22,CCN(CC)S(=O)(=O)c1ccc(Cl)c(C(=O)Oc2cccc(-c3cnc4ccccc4n3)c2)c1,inactive: -5.98%
23,COc1ccc(C(=O)Nc2ccc(N3CCCCC3)cc2)cc1Br,inactive: 16.1%

# Shown tab-delimited: entries from further up
row	Structure (SMILES)	activity change (PNC), negative = inhibition
18	O=C(Nc1ccc2c(c1)OCO2)Nc1ccc(Br)cn1	inconclusive: -38.6%
19	NC(=O)C1(N2CCCCC2)CCN(c2nc(-c3ccc(Br)cc3)cs2)CC1	inconclusive: -41.7%
20	O=C(c1ccc(Cl)s1)N1CCN(c2ccccc2)CC1	inconclusive: -37.2%
21	CN(C)c1ccc(C(=S)N2CCNCC2)cc1	inconclusive: -74.6%
22	Cc1ccc(NC(=O)CCC(=O)N/N=C/c2cc([N+](=O)[O-])ccc2O)cc1	inconclusive: -36.1%

# (next part)

row,Structure (SMILES),"activity change (PNC), negative = inhibition"
1,C/C(=N/Nc1nc(-c2ccccc2)cc(-c2ccc(F)cc2)n1)c1cccc(N)c1,inconclusive: -55.4%
2,COc1ccc(NC(=O)NC(C)(C(F)(F)F)C(F)(F)F)cc1,inactive: 31.9%
3,Cc1ccc2occ(C(c3nnnn3C3CCCC3)N3CCN(C(=O)c4ccco4)CC3)c(=O)c2c1 (stereo not given),inactive: 22.4%
4,O=C(C1CCCN1S(=O)(=O)c1ccc(Cl)cc1)N1CCOCC1 (stereo not given),inconclusive: -39.1%
5,O=C(CSc1nnc(-c2ccccc2)n1-c1ccccc1)c1ccc[nH]1,inconclusive: -45.2%
6,Cc1ccc(CCC(=O)Nc2ncc(Cc3cc(Cl)ccc3Cl)s2)o1,active: -88.9%
7,CN1C(=O)/C(=C/c2ccccc2OCc2ccc(F)cc2)N(C)C1=S,inactive: -19.7%
8,Cc1ccc(C(c2nnnn2Cc2ccccc2)N2CCN(Cc3ccccc3)CC2)cc1 (stereo not given),inconclusive: -42.8%
9,CCc1nnc(NC(=O)c2ccncc2)s1,inconclusive: -30.7%
10,COc1nc(OC)nc(N2CCC(C(=O)NCc3ccco3)CC2)n1,inconclusive: -48.2%
11,O=C(CC(NS(=O)(=O)c1ccc(Cl)cc1)c1ccco1)NC1CCCC1 (stereo not given),active: -84.2%
12,Oc1c(C(c2ccco2)N2CCN(C(c3ccccc3)c3ccccc3)CC2)sc2ncnn12 (stereo not given),inconclusive: -52.9%
13,COc1ccc(S(=O)(=O)NC(C)C(=O)Nc2cccc(C(C)=O)c2)cc1 (stereo not given),active: -112%
14,NS(=O)(=O)c1ccc(N=Cc2ccc(Br)s2)cc1,inconclusive: -63.3%
15,O=C(CSc1ncnc2c1oc1ccccc12)N1CCCc2ccccc21,inconclusive: -39.2%
16,CC(C)Sc1nnc(CNC(=O)C23CC4CC(CC(C4)C2)C3)n1C1CCCCC1,inactive: -28%
17,COc1ccc(C2(CNC(=O)/C=C/c3ccco3)CCCC2)cc1OC,inactive: 21.4%
18,CCC(C)(C)NC(=O)c1ccc(Sc2nncn2C)c([N+](=O)[O-])c1,inconclusive: -58.1%
19,FC(F)(F)c1ccc(/C=N/N2CCN(Cc3ccccc3)CC2)cc1,inconclusive: -30.1%
20,CC(C)CCNC(=O)CSc1nc2ccccc2c(=O)[nH]1,inconclusive: -43%
21,Cn1c(C(=O)NCCN2CCN(c3ccccc3F)CC2)cc2c(=O)n(C)c3ccccc3c21,inconclusive: -52%
